Values from PubChem BioAssay AID504744 (Drosophila RNAi Screening Center, 2011).
Purpose: 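Find genes whose loss alters insulin-driven dAkt phosphorylation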 (primary screen). System: Drosophila Kc167 cells. Knock-down reagent: long dsRNA against Drosophila genes, 250 ng dsRNA per well of a 384-well plate. Time to read-out: 3 days of knock-down, then overnight serum-free starvation before stimulation. Challenge: bovine insulin at 387 nM for 10 minutes after 12 h without serum. Measured: 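Per-well phospho-dAkt level from an in-cell fluorescent antibody stain, divided by a DNA-dye signal; log2 residuals turned into z-scores that take cell number into account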. Rule for the call: 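Under insulin, a gene counts as a hit if the average z-score of two replicates lies above 2.5 or below -2.5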.
The deposit covers about 23,000 reagents; below is a random part of those that have a named target and a result. Of all reagents, 98 (0.43%) are marked active. 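Only hit calls are given; the phospho-dAkt signals, z-scores and hit direction were not deposited.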 Names joined by + are all predicted targets of the reagent.

no.	target	DRSC id	call
1	CG15739	DRSC19705	inactive
2	CG7011	DRSC09347	inactive
3	mtTFB1 + Ccdc56	DRSC10809	inactive
4	Inx3 (Innexin 3)	DRSC14857	inactive
5	GNBP-like3 (GNBP-like 3)	DRSC06385	inactive
6	CG17841	DRSC17737	inactive
7	snRNA:U1:95Cc + snRNA:U1:95Cb	DRSC13641	inactive
8	Phax (Phosphorylated adaptor for RNA export)	DRSC07066	inactive
9	Or47a (Odorant receptor 47a)	DRSC07491	inactive
10	CG11162	DRSC19391	inactive
11	CG11162	DRSC22538	inactive
12	hay (haywire)	DRSC11354	inactive
13	DCTN5-p25 (Dynactin 5, p25 subunit)	DRSC03525	inactive
14	CG34161	DRSC01132	inactive
15	Dus3 (Dihydrouridine synthase 3)	DRSC02059	inactive
16	rictor (rapamycin-insensitive companion of Tor)	DRSC20071	active
17	CG12535	DRSC17838	inactive
18	CG13603	DRSC14606	inactive
19	cyst (cysts)	DRSC02023	inactive
20	LpR1 (Lipophorin receptor 1)	DRSC15665	inactive
21	LpR1 (Lipophorin receptor 1)	DRSC15669	inactive
22	LpR1 (Lipophorin receptor 1)	DRSC15670	inactive
23	CG1640	DRSC19750	inactive
24	CG15172	DRSC02473	inactive
25	Ubc6 (Ubiquitin conjugating enzyme 6)	DRSC12370	inactive
26	Or59a (Odorant receptor 59a)	DRSC04631	inactive
27	CG31104	DRSC14658	inactive
28	CG10274	DRSC09716	inactive
29	dtr (defective transmitter release)	DRSC01847	inactive
30	Lcp65APsi (pseudo)	DRSC08795	inactive
31	Lcp65APsi (pseudo)	DRSC10342	inactive
32	CR13656 (pseudo)	DRSC13705	inactive
33	CR13656 (pseudo)	DRSC14656	inactive
34	Coop (Corepressor of Pangolin)	DRSC06604	inactive
35	CG17122	DRSC10245	inactive
36	CG15473	DRSC18056	inactive
37	Or33c (Odorant receptor 33c)	DRSC03388	inactive
38	CG33136	DRSC05744	inactive
39	CG7707	DRSC10903	inactive
40	Mmp2 (Matrix metalloproteinase 2)	DRSC06698	inactive
41	Mmp2 (Matrix metalloproteinase 2)	DRSC22024	inactive
42	Acadvl (Acyl-CoA dehydrogenase very long chain)	DRSC07022	inactive
43	CG13058	DRSC09941	inactive
44	Rcd4 (Reduction in Cnn dots 4)	DRSC02597	inactive
45	Fatp2 (Fatty acid transport protein 2)	DRSC03971	inactive
46	Fatp2 (Fatty acid transport protein 2)	DRSC04178	inactive
47	Fatp2 (Fatty acid transport protein 2)	DRSC04330	inactive
48	Nep2 (Neprilysin 2)	DRSC12126	inactive
49	Nep2 (Neprilysin 2)	DRSC21398	inactive
50	CG9483	DRSC03226	inactive
51	bbc (bb in a boxcar)	DRSC06958	inactive
52	bbc (bb in a boxcar)	DRSC22309	inactive
53	CG7367	DRSC03049	inactive
54	CG12605	DRSC08286	inactive
55	CG15362	DRSC00392	inactive
56	sp3 (spermathreecae)	DRSC16354	inactive
57	CG10211	DRSC02027	inactive
58	Son (Son RNA binding protein)	DRSC16400	inactive
59	CG10973	DRSC09813	inactive
60	east (enhanced adult sensory threshold)	DRSC18770	inactive
61	cyp33 (cyclophilin-33)	DRSC07600	inactive
62	CG13326	DRSC06363	inactive
63	CG4676	DRSC06879	inactive
64	l(1)G0196 (lethal (1) G0196)	DRSC20591	inactive
65	l(1)G0196 (lethal (1) G0196)	DRSC20628	inactive
66	l(1)G0196 (lethal (1) G0196)	DRSC20629	inactive
67	GNBP3 (Gram-negative bacteria binding protein 3)	DRSC11170	inactive
68	CG32219	DRSC09641	inactive
69	CG2663	DRSC12314	inactive
70	CG12310	DRSC09878	inactive
71	Rbp4 (RNA-binding protein 4)	DRSC16818	inactive
72	Rab10	DRSC20572	inactive
73	Rpn9 (Regulatory particle non-ATPase 9)	DRSC16840	inactive
74	CG17271	DRSC15210	inactive
75	CG17271	DRSC22629	inactive
76	Dscam4 (Down syndrome cell adhesion molecule 4)	DRSC08911	inactive
77	Dscam4 (Down syndrome cell adhesion molecule 4)	DRSC08913	inactive
78	Dscam4 (Down syndrome cell adhesion molecule 4)	DRSC10031	inactive
79	Dscam4 (Down syndrome cell adhesion molecule 4)	DRSC10329	inactive
80	Dscam4 (Down syndrome cell adhesion molecule 4)	DRSC10765	inactive
81	CG11269	DRSC04094	inactive
82	CG12824	DRSC06173	inactive
83	RpS3A (Ribosomal protein S3A)	DRSC17168	inactive
84	grsm (granny smith)	DRSC14165	inactive
85	grsm (granny smith)	DRSC14843	inactive
86	Idh (Isocitrate dehydrogenase)	DRSC10779	inactive
87	CG11125	DRSC06042	inactive
88	Srrm1 (Serine-arginine repetitive matrix 1)	DRSC09835	inactive
89	Cyp6g2 (Cytochrome P450 6g2)	DRSC07387	inactive
90	CG8584	DRSC07217	inactive
91	CG13053	DRSC09934	inactive
92	RpL23 (Ribosomal protein L23)	DRSC04648	inactive
93	CG12499	DRSC14521	inactive
94	CG34434	DRSC18134	inactive
95	Tsp3A (Tetraspanin 3A)	DRSC18656	inactive
96	Sec61beta (Sec61 beta subunit)	DRSC07548	inactive
97	Sec61beta (Sec61 beta subunit)	DRSC21512	inactive
98	Mic26-27 (MICOS subunit 26/27)	DRSC15913	inactive
99	CG5888	DRSC01929	inactive
100	Tina-1 (Troponin C-akin-1)	DRSC04317	inactive
101	CG6873	DRSC20014	inactive
102	CG15537	DRSC15073	inactive
103	CG6927	DRSC18407	inactive
104	CG14662	DRSC12248	inactive
105	Ist1	DRSC09697	inactive
106	CG5172	DRSC19936	inactive
107	PIG-G (Phosphatidylinositol glycan anchor biosynthesis class G)	DRSC06823	inactive

Entries listed so far whose gene name begins with P or p:
target	DRSC id	call
Phax (Phosphorylated adaptor for RNA export)	DRSC07066	inactive
PIG-G (Phosphatidylinositol glycan anchor biosynthesis class G)	DRSC06823	inactive
